PubChem BioAssay AID1259308 | NCATS, 2017
The whole screen tested about 59,000 reagents; shown is a random part of them. About 1,510 of all reagents (2.6%) count as active. 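Calls use total luciferase alone and ignore viability, so some active siRNAs may act by altering cell number.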 Reagents against one gene are numbered here. Further read-outs or replicates are left out here. No sequences are given here.

- Test: 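Genes whose loss raises luciferase production in HEK293 cells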 (primary screen)
- System: human HEK293 embryonic kidney cells stably expressing firefly luciferase (HEK-CMV-Luc2-Hygro)
- Reagent: single siRNA against human genes, 0.8 pmol siRNA per well
- Time to read-out: 72 h
- Measurement: 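Luciferase light (ONE-Glo) measured on one replicate plate set and viability (CellTiter-Glo) on the other, scaled to a negative control siRNA, with robust z-scores and luciferase per cell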
- Reading the numbers: total luciferase, z-score: higher = more reporter protein produced
- Call rule: 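An siRNA counts as active if its total luciferase robust z-score exceeds 3; genes with two or more such siRNAs out of three were retested with fresh siRNAs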
- Calls: active = raised luciferase; inactive = no rise

gene	reagent	total luciferase, z-score	outcome
CATSPERB (GeneID 79820)	1	0.0311	inactive
CATSPERB (GeneID 79820)	2	-0.594	inactive
CATSPERB (GeneID 79820)	3	-1.04	inactive
CCDC3 (GeneID 83643)	1	-0.169	inactive
CCDC3 (GeneID 83643)	2	0.917	inactive
CCDC3 (GeneID 83643)	3	-0.0906	inactive
C5orf22 (GeneID 55322)	1	0.496	inactive
C5orf22 (GeneID 55322)	2	-0.621	inactive
C5orf22 (GeneID 55322)	3	1.39	inactive
SMAD6 (GeneID 4091)	1	-1.05	inactive
SMAD6 (GeneID 4091)	2	0.444	inactive
SMAD6 (GeneID 4091)	3	-1.55	inactive
PHETA2 (GeneID 150368)	1	-0.0722	inactive
PHETA2 (GeneID 150368)	2	0.257	inactive
PHETA2 (GeneID 150368)	3	0.849	inactive
FRMD6 (GeneID 122786)	1	-0.464	inactive
FRMD6 (GeneID 122786)	2	1.32	inactive
FRMD6 (GeneID 122786)	3	0.183	inactive
VMO1 (GeneID 284013)	1	2.82	inactive
VMO1 (GeneID 284013)	2	0.584	inactive
VMO1 (GeneID 284013)	3	3.13	active
UCN2 (GeneID 90226)	1	0.844	inactive
UCN2 (GeneID 90226)	2	0.461	inactive
UCN2 (GeneID 90226)	3	-1.46	inactive
MEFV (GeneID 4210)	1	-0.915	inactive
MEFV (GeneID 4210)	2	-0.355	inactive
MEFV (GeneID 4210)	3	1.84	inactive
ZC2HC1A (GeneID 51101)	1	0.28	inactive
ZC2HC1A (GeneID 51101)	2	-0.48	inactive
ZC2HC1A (GeneID 51101)	3	-0.279	inactive
PTPN9 (GeneID 5780)	1	-1.2	inactive
PTPN9 (GeneID 5780)	2	0.684	inactive
PTPN9 (GeneID 5780)	3	-0.851	inactive
EIF4A1 (GeneID 1973)	1	-2.15	inactive
EIF4A1 (GeneID 1973)	2	-1.95	inactive
EIF4A1 (GeneID 1973)	3	-0.809	inactive
GYPE (GeneID 2996)	1	-0.889	inactive
GYPE (GeneID 2996)	2	0.439	inactive
GYPE (GeneID 2996)	3	-0.404	inactive
GPR78 (GeneID 27201)	1	0.0877	inactive
GPR78 (GeneID 27201)	2	-0.645	inactive
GPR78 (GeneID 27201)	3	0.208	inactive
ZFAND3 (GeneID 60685)	1	1.47	inactive
ZFAND3 (GeneID 60685)	2	0.296	inactive
ZFAND3 (GeneID 60685)	3	-0.505	inactive
CERCAM (GeneID 51148)	1	3.19	active
CERCAM (GeneID 51148)	2	0.136	inactive
CERCAM (GeneID 51148)	3	-0.357	inactive
FEM1A (GeneID 55527)	1	1.02	inactive
FEM1A (GeneID 55527)	2	-1.84	inactive
FEM1A (GeneID 55527)	3	0.42	inactive
B4GALT6 (GeneID 9331)	1	-0.15	inactive
B4GALT6 (GeneID 9331)	2	-0.588	inactive
B4GALT6 (GeneID 9331)	3	0.569	inactive
TEAD3 (GeneID 7005)	1	1.04	inactive
TEAD3 (GeneID 7005)	2	-0.381	inactive
TEAD3 (GeneID 7005)	3	-1.9	inactive

Not a retest: entries from further up.
gene	reagent	total luciferase, z-score	outcome
GYPE (GeneID 2996)	2	0.439	inactive
GYPE (GeneID 2996)	3	-0.404	inactive
GPR78 (GeneID 27201)	1	0.0877	inactive
GPR78 (GeneID 27201)	2	-0.645	inactive
GPR78 (GeneID 27201)	3	0.208	inactive
ZFAND3 (GeneID 60685)	1	1.47	inactive
ZFAND3 (GeneID 60685)	2	0.296	inactive
